Assay results published in patent publication US9896423B2, “Deuterium substituted 1-[2-(2,4-dimethyl-phenylsulfanyl)-phenyl]piperazine compound or derivatives thereof, and pharmaceutical composition and use thereof” (Jiangsu Jibeier Pharmaceutical Co. Ltd., priority 2014, dated 2018).
Several values for one entry are separate records, joined by “and”; a condition that tells them apart may be missing. Equal values may be shown once. Where a name gives a salt, the structure may show the parent alone. Further values from the same series stand in other lists.

Assay: Pharmacokinetic test in rats, gavage administration
Type: in vivo, SD rats
Conditions: 20 mg/kg oral, 0.5 h, individual rats 1-6
Experimental: The preferred compound of the present disclosure was assessed in rats for its pharmacokinetic profile.
SD rats, male and female, weighing 150 to 250 g
Mobile phase: 10 mM ammonium formate aqueous solution:methanol=15:85
The ionization source was electrospray ionization source. The detection mode was positive mode. Multiple reaction monitoring (MRM) was used as the scanning mode. The ion reaction for the quantitative analysis was the following: m/z was 305.2\150.0 for XX, and 256.1\167.1 for diphenhydramine (the internal standard).
XX or YY was orally administered with single dose of 20 mg/kg to six SD rats, one half of which were male and the other half was female. XX or YY was dissolved in 10% hydroxypropyl-β-cyclodextrin. […]
After the blood collection, the tubes were immediately gently turned upside down at least five times to ensure sufficient mixing, and placed on ice. Heparin was added for anticoagulation. The samples were centrifuged at 8000 rpm for 5 min to separate serum from erythrocyte. The serum was transferred with a pipettor to 2 mL polypropylene (PP) tubes, which were marked with the name of the compound and the time points, and stored in a refrigerator at −40° C. before LC-MS analysis. Samples with high concentrations were diluted with rat blank plasma.
2.5 μL of Meth-H2O and 5 μL of the internal standard solution (20 ng/mL, IS) were added to 50 μL of the plasma. […]

Row | SMILES | Concentrations in Plasma of Rats after Oral Administration
1 | [2H]C([2H])([2H])c1ccc(Sc2ccccc2N2CCNCC2)c(C([2H])([2H])[2H])c1 [XX, 1-{2-[2,4-bis(trideuteriomethyl)phenylsulfanyl]phenyl}piperazine hydrobromic acid salt] | 45.9 ng/mL and 53.2 ng/mL and 41.6 ng/mL and 65.2 ng/mL and 88.9 ng/mL and 82.7 ng/mL
2 | Cc1ccc(Sc2ccccc2N2CCNCC2)c(C)c1 [YY, 1-[2-(2,4-dimethyl-phenylsulfanyl)-phenyl]piperazine] | 57.2 ng/mL and 45.8 ng/mL
